Assay results as given in PubChem BioAssay AID2685 (National Center for Advancing Translational Sciences (NCATS), 2010).
This is one part of the list. Further columns of the screen follow, without active or inactive calls. Compounds called inactive in the main read-out are mostly missing here. The note in brackets gives the kind of curve behind each potency; many fits are weak.

Experiment: qHTS Assay for Lipid Storage Modulators in Drosophila S3 Cells;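 as to cell number change: cells counted by Cell Tracker Red CMTPX staining in the red channel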
Settings: BODIPY lipid droplet fluorescence, 18-24 h; for cell number change: measured here: cell count max response, cells fed with added oleic acid
Procedure, shortened: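 Laser-scanning cytometry quantifies lipid droplet accumulation (500–530 nm total intensity; droplet/cell object ratio) in oleic acid-fed (400 uM added) Drosophila S3 cells treated with a concentration series. 20 uM Triacsin C defined 100% inhibition.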

[1] = measured here: lipid fluorescence (Fed channel) AC50, cells fed with added oleic acid
[2] = measured here: cell number channel AC50, cells fed with added oleic acid

| Structure (SMILES) | cell number change | AC50 [1] | AC50 [2] |
| --- | --- | --- | --- |
| CC(C(=O)Nc1ccc(F)c(F)c1F)N(C)CCOc1ccccc1 (centres undefined) | -1.73% | 8.2 µM [rising, partial curve] |  |
| CS(=O)(=O)c1ccc(N2CCN(c3ccccn3)CC2)c([N+](=O)[O-])c1 | 12.5% |  |  |
| Cc1ccc(NC(=O)COC(=O)CCC(=O)c2cccs2)cc1C | -7% | 23.1 µM [falling, partial curve] |  |
| COc1ccccc1Nc1nc(N)nc(CSC(=S)N2CCCCC2C)n1 (centres undefined) | 20.3% | 0.13 µM [rising, full curve, poor fit] |  |
| N#Cc1cccc(NC(=O)CSc2sc3c(O)cc(=O)[nH]c3c2C#N)c1 | -10.3% |  |  |
| CCC(C)Nc1nc(N)c([N+](=O)[O-])c(NC2CCCCC2)n1 (centres undefined) | -10.2% | 3.66 µM [falling, partial curve] | 5.8 µM [falling, single point] |
| Cc1cccc(NC(=O)CSCC(=O)Nc2ccccc2N2CCCC2)c1 | 47.1% | 13 µM [rising, partial curve, poor fit] | 29.1 µM [rising, single point] |
| CCSc1nnc(NC(=O)CSc2nnc(CNC(=O)c3ccc(OC)c(OC)c3)o2)s1 | -4.75% |  | 2.06 µM [rising, partial curve, poor fit] |
| COc1ccc(N2C(=O)C(O)C2c2ccc(C)cc2)cc1 (centres undefined) | -28.1% | 0.731 µM [falling, full curve] |  |
| COc1ccc(CN2C(=O)C(CC(C)C)Nc3ncnc(N4CCOCC4)c32)cc1 (centres undefined) | -53% | 0.82 µM [falling, full curve] | 1.46 µM [falling, full curve, poor fit] |
| COc1cc(C(=O)Nc2ccc(C(N)=O)cc2)c([N+](=O)[O-])cc1OC | -1.06% | 0.116 µM [rising, full curve] | 0.0291 µM [rising, full curve, poor fit] |
| Cc1cc(N2CCC(C(N)=O)CC2)nc(-c2ccccc2)n1 | -5.22% |  |  |
| Cc1cc(C)n(/N=C\c2c(O)ccc3ccccc23)c(=O)c1C(N)=O | -23.5% |  |  |
| CCCn1c(O)c(N=Nc2ccc3ccccc3n2)c2ccccc21 | -66.7% |  | 0.651 µM [falling, full curve] |
| CCCCn1c(N)c(N(CCC(C)C)C(=O)COC(=O)c2ccco2)c(=O)[nH]c1=O | -7.22% | 14.6 µM [falling, partial curve, poor fit] |  |
| O=C(CCS(=O)(=O)c1ccc(Cl)cc1)OCC(=O)N1CCCCC1 | -10.1% | 4.61 µM [falling, partial curve] |  |
| CCOc1cc(/C=N/NC(N)=S)cc(Br)c1OCc1ccccc1C | -3.95% |  |  |
| CCOc1cccc(/C=N/NC(=O)C2CCCC2)c1O | 25.4% | 0.58 µM [rising, single point] |  |
| CC1=NN(c2ccccc2)C(=O)/C1=C\c1cc(C)n(-c2ccccc2)c1C | 7.45% | 6.51 µM [falling, single point] |  |
| CC(C)N1CCC(N2CCN(Cc3ccc(-c4ccc(Cl)cc4)o3)CC2CCO)CC1 (centres undefined) | 14.5% | 29.1 µM [rising, single point] |  |

| Structure (SMILES) | cell number change | AC50 [1] | AC50 [2] |
| --- | --- | --- | --- |
| CCN(CC)C(=O)C1=C(C)NC(=O)NC1c1ccccc1F (centres undefined) | -4.59% | 6.51 µM [falling, partial curve, poor fit] |  |
| O=S(=O)(NC1CCCC1)c1ccc(S(=O)(=O)N2CCN(c3ccccc3)CC2)cc1 | 78.1% |  | 2.91 µM [rising, partial curve] |
| O=C1CCCN1c1ccc(S(=O)(=O)N2CCCCC2)cc1 | 23.7% |  |  |
| COc1ccc(CCN2C(=O)C3C4CC(C5C(C(=O)NN)=NOC45)C3C2=O)cc1OC (centres undefined) | -22.9% | 25.9 µM [falling, single point] |  |
| COc1ccc(-n2c(Cc3cccs3)nnc2SCC(=O)Nc2ccc3c(c2)OCCO3)cc1 | 18.6% | 0.731 µM [rising, full curve] | 0.517 µM [rising, full curve, poor fit] |
| NC(=O)c1ccsc1NC(=O)COC(=O)Cc1n[nH]c(=O)c2ccccc12 | -18.1% | 0.58 µM [falling, single point] |  |
| Cc1ccc(S(=O)(=O)NCc2ccc(C(=O)N3CCCC3)cc2)cc1 | 2.28% | 0.13 µM [falling, full curve, poor fit] |  |
| CCn1cc(C(=O)NC2CCCc3c2cnn3-c2cccc(C)c2C)cn1 (centres undefined) | -34.7% | 0.82 µM [falling, full curve] | 0.291 µM [falling, full curve, poor fit] |
| COCCN(C(=O)c1ccc(OCC(C)C)cc1)c1c(N)n(Cc2ccccc2)c(=O)[nH]c1=O | -0.5% |  |  |
| Cc1ccc2[nH]c(=O)c(CN(Cc3ccccc3)Cc3nnnn3C3CCCC3)cc2c1 | -35.1% | 20.6 µM [falling, single point] | 29.1 µM [falling, single point] |
| CN(CC(=O)Nc1ccccc1C(F)(F)F)C(=O)c1ccc(N2C(=O)CCC2=O)cc1 | -6.36% | 18.4 µM [falling, partial curve] |  |
| Nc1ncnc2c1ncn2[C@H]1C[C@H](O)[C@@H](CO)O1 | 3.46% | 14.6 µM [falling, partial curve, poor fit] |  |
| CS(=O)(=O)NNC(=O)Cn1nnc(-c2cc(C(F)(F)F)cc(C(F)(F)F)c2)n1 | -8.68% | 0.231 µM [falling, full curve, poor fit] | 0.82 µM [falling, single point] |
| COc1ccc(C(=O)Nc2ccc(Nc3ccccc3)cc2)cc1[N+](=O)[O-] | -23.9% | 23.1 µM [falling, single point] |  |
| COc1ccc(N(C(=O)c2ccco2)S(=O)(=O)c2cc(OC)ccc2OC)cc1 | -1.8% |  |  |
| COc1ccc(-c2ccnc3nc(/N=C/N(C)C)nn23)cc1 | -19.7% |  | 0.461 µM [falling, full curve] |
| O=C(NCc1ccco1)c1ccccc1NS(=O)(=O)c1cccs1 | 71.6% | 29.1 µM [rising, single point] | 18.4 µM [rising, single point] |
| O=C(c1ccco1)N1CCN(C(=O)C2CC(c3ccccc3F)=NO2)CC1 (centres undefined) | 13.1% |  |  |
| CCC(C)NS(=O)(=O)c1ccc(NC(=O)C(Sc2ccccc2)c2ccccc2)cc1 (centres undefined) | -21.4% | 29.1 µM [falling, single point] |  |
| CC(C)c1cc(=O)[nH]c(SCC(=O)NC2CCCC2)n1 | 35.7% | 29.1 µM [rising, single point] | 20.6 µM [rising, partial curve, poor fit] |

Reformatted comma-delimited: 4 of the compounds above.
Structure (SMILES),cell number change,AC50 [1],AC50 [2]
Cc1ccc2[nH]c(=O)c(CN(Cc3ccccc3)Cc3nnnn3C3CCCC3)cc2c1,-35.1%,"20.6 µM [falling, single point]","29.1 µM [falling, single point]"
CN(CC(=O)Nc1ccccc1C(F)(F)F)C(=O)c1ccc(N2C(=O)CCC2=O)cc1,-6.36%,"18.4 µM [falling, partial curve]",
Nc1ncnc2c1ncn2[C@H]1C[C@H](O)[C@@H](CO)O1,3.46%,"14.6 µM [falling, partial curve, poor fit]",
CS(=O)(=O)NNC(=O)Cn1nnc(-c2cc(C(F)(F)F)cc(C(F)(F)F)c2)n1,-8.68%,"0.231 µM [falling, full curve, poor fit]","0.82 µM [falling, single point]"

Additional records follow:

| Structure (SMILES) | cell number change | AC50 [1] | AC50 [2] |
| --- | --- | --- | --- |
| Nc1c(C(=O)CSc2nnc(Cc3ccccc3)o2)c(=O)[nH]c(=O)n1C1CC1 | 2.22% | 0.00411 µM [rising, full curve, poor fit] | 0.0651 µM [rising, full curve, poor fit] |
| O=C(COc1ccc(OCc2ccccc2)cc1)NN=C1CCCC1 | -18.1% | 6.51 µM [rising, single point] |  |
| O=C(NC1CCN(C(=O)c2cccs2)CC1)c1ccccc1 | -20% | 7.31 µM [falling, partial curve] |  |
| CC1(C)Cc2c(sc(NC(=O)COc3ccc(Cl)cc3)c2C(N)=O)C(C)(C)N1 | 8.82% | 20.6 µM [rising, single point] |  |
| CCOc1cc(Br)ccc1S(=O)(=O)N1CC(C)OC(C)C1 (centres undefined) | 1.16% | 16.4 µM [rising, partial curve] |  |
| CCCNC(=O)N1CCCC(C(N)=O)C1 (centres undefined) | -7.11% | 2.59 µM [falling, full curve, poor fit] | 0.326 µM [falling, partial curve, poor fit] |
| COc1ccc2nc(C)cc(SCC(=O)N/N=C/c3ccco3)c2c1 | -31.4% |  | 11.6 µM [falling, partial curve, poor fit] |
| NC(=O)C(c1ccc(Sc2ccccc2)nn1)c1ccc(Cl)cc1Cl (centres undefined) | -7.21% |  |  |
| CC(C)OCC(O)CS(=O)(=O)Cc1ccccc1 (centres undefined) |  | 0.651 µM [rising, full curve, poor fit] |  |
| COc1ccc(CNC(=O)CN2CCN(c3ccc(F)cc3)CC2)cc1 | 16.8% | 29.1 µM [rising, single point] |  |
| Nc1cc(N)nc(SCC(=O)NC(=O)NC2CCCC2)n1 | 3.15% | 1.84 µM [rising, single point] |  |
| COC(=O)c1sccc1NC(=O)Nc1cccc(C)c1C | 24.3% |  | 0.0184 µM [rising, full curve, poor fit] |
| CNC(=O)CSc1nc2nn(-c3ccccc3)c(=O)c-2c2n1CCCCC2 | 0.197% | 18.4 µM [falling, single point] |  |
| O=C(c1ccc(F)cc1)N1CCCCC(Sc2nnc3ccccn23)C1=O (centres undefined) | 37.8% |  | 18.4 µM [rising, single point] |
| COCCCN(Cc1ccco1)C(=O)c1cc2c(s1)-c1ccc(Cl)cc1S(=O)(=O)C2 | 44.6% |  | 2.31 µM [rising, partial curve] |
| O=C(NC(=S)NC1CCS(=O)(=O)C1)c1cccs1 (centres undefined) |  |  | 0.731 µM [rising, partial curve, poor fit] |
| O=C(CCC1COc2ccccc2O1)Nc1ncccc1O (centres undefined) | 12.7% | 29.1 µM [rising, single point] |  |
| CCC(C)Nc1cc(C)nc2ncnn12 (centres undefined) | -55.1% | 32.6 µM [falling, partial curve, poor fit] | 29.1 µM [falling, single point] |
| COc1ccc(NC(=O)c2cc3c(s2)CCC(C)C3)cc1S(=O)(=O)N1CCOCC1 (centres undefined) | 74.5% |  | 6.51 µM [falling, single point] |
